Library screen at single concentrations

The chains behind the UniProt entries cited, without tags or fusion partners. Residues count along the entry.
UniProt Q8IDJ8, 1-583: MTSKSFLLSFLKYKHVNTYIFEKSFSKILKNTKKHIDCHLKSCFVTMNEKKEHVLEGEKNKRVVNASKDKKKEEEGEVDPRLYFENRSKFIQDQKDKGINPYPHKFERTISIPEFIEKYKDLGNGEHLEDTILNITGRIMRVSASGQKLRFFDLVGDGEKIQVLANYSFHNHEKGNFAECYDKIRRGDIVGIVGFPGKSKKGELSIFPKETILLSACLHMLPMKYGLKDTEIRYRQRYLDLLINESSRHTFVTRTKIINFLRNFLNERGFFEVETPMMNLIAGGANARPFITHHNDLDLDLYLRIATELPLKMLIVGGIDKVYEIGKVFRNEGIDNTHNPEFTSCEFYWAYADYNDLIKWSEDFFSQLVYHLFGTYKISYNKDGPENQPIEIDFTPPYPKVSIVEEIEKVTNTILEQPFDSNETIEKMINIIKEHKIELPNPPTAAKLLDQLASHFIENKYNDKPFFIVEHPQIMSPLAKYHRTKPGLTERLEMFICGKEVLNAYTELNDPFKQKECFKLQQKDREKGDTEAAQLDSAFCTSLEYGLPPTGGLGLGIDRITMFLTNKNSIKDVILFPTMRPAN
UniProt A4I591, 1-473: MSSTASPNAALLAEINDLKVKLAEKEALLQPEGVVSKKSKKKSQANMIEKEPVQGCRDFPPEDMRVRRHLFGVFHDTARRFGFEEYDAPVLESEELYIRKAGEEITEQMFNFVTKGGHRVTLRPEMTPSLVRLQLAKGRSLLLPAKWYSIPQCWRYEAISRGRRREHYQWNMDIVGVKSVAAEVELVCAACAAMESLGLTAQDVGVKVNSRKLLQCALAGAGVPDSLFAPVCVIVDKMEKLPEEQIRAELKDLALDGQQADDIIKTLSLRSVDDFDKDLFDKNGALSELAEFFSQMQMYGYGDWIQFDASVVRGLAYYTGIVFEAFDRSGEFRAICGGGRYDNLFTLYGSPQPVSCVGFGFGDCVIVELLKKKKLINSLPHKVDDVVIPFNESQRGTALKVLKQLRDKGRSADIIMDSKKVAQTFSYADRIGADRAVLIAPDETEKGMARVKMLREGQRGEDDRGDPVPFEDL
UniProt Q4DA54, 1-478: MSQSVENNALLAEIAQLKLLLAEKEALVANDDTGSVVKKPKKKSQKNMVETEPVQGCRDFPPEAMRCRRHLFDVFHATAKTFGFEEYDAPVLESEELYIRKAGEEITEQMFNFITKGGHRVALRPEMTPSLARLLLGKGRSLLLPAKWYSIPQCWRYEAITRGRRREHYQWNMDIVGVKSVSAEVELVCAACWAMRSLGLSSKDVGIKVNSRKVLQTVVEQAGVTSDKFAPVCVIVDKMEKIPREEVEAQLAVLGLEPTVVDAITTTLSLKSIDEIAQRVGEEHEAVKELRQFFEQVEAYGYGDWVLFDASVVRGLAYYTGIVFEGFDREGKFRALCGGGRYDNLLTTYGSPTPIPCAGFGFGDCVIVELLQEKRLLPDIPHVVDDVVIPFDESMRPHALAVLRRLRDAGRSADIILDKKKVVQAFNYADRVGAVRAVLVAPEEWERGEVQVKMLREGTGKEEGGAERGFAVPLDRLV
UniProt P9WPC5, whole entry: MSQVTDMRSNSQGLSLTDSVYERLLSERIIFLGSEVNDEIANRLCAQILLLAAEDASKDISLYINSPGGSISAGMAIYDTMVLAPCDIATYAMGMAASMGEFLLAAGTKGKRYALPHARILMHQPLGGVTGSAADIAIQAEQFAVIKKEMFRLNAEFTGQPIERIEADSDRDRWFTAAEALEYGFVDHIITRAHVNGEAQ
UniProt P9WPC3, whole entry partner: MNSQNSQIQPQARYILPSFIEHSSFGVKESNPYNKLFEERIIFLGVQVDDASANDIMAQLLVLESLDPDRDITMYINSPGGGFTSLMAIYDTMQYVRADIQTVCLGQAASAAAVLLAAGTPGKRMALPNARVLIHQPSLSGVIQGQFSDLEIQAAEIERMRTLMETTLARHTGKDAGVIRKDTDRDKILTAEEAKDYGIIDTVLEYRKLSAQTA

PfKRS1: 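Enzyme assay of the cytosolic lysyl-tRNA synthetase in 384-well plates, read by luminescence. Target: Lysine-tRNA ligase, Plasmodium falciparum 3D7 (UniProt Q8IDJ8). Tested at 30 µM. Higher reads as stronger inhibition, judged from the few compounds that gave an IC50. About 69,000 compounds were tested under these conditions; 0.071% (about 49) showed 50% or more at least once.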
LiHisRS: 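Enzyme assay of histidyl-tRNA synthetase; the read-out is not stated. Target: Histidine-tRNA ligase, Leishmania infantum (UniProt A4I591). Compounds at 30 µM. Higher reads as stronger inhibition (inferred: compounds with an IC50 in retests scored well above the rest). The assay is labelled LdHisRS but filed under L. infantum. Size under these conditions: about 69,000 compounds, about 410 of them at 50% or above in at least one test.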
TcHisRS: 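Enzyme assay of histidyl-tRNA synthetase; the read-out is not stated. Target: Histidine-tRNA ligase, Trypanosoma cruzi CL Brener (UniProt Q4DA54). Concentration: 30 µM. Direction is inferred from retests: higher values go with stronger inhibition. About 69,000 compounds were tested under these conditions; 0.045% (about 31) showed 50% or more at least once.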
Leishmania in macrophages: 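Cell assay of Leishmania donovani living inside macrophages; the read-out is not stated. Tested at 30 µM. Higher reads as stronger inhibition (inferred: compounds with an IC50 in retests scored well above the rest). About 69,000 compounds were tested under these conditions; 1.5% (about 1,000) showed 50% or more at least once.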
ClpP1P2: 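ClpP1P2, Mycobacterium tuberculosis (UniProt P9WPC5 and UniProt P9WPC3). Protease assay of ClpP1P2, read by the AMC dye that it sets free. Compounds at 50 µM. Direction is inferred from only a few compounds that gave an IC50; most scored high, so higher reads as stronger inhibition. Most other retested compounds had strongly negative values. About 69,000 compounds were tested under these conditions; 0.015% (about 10) showed 50% or more at least once.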

The filed quantity is “Percent Effect” (%). The controls that fix the scale are not given in the record; negative values are as filed. The compounds are a random part of those screened. Two or more numbers in one place are separate tests of the same structure; such repeats can differ widely.

With CC(C)n1nccc1CN1Cc2nccn2CC1c1ccccc1 (stereo not drawn) the screen gave PfKRS1: 2.158%; LiHisRS: 15.38%; TcHisRS: 1.13%; Leishmania in macrophages: 26.75%; ClpP1P2: 0.5395%.
With Cn1ccc(C(=O)N2CCC(Cc3ccc4ncccc4c3)CC2)n1 the screen gave PfKRS1: -0.7193%; LiHisRS: 0%; TcHisRS: 1.13%; Leishmania in macrophages: -67.74%; ClpP1P2: -7.536%.
With CN1CCN(C2CCN(CCOc3ccccc3)CC2)C1=O the screen gave PfKRS1: 2.028%; LiHisRS: 8.696%; TcHisRS: 2.299%; Leishmania in macrophages: 20.64%; ClpP1P2: -10.79%.
With CS(=O)(=O)c1ccc(-c2c[nH]c([C@@H]3COCCN3)n2)cc1 the screen gave PfKRS1: 2.576%; LiHisRS: 13.51%; TcHisRS: -3.483%; Leishmania in macrophages: 17.14%; ClpP1P2: -8.857%.
With CNCc1ccc([C@@H]2CN(C(C)=O)C[C@H]2C(N)=O)cc1 the screen gave PfKRS1: 0.07118%; LiHisRS: 7.194%; TcHisRS: 8.812%; ClpP1P2: 13.83%.
With Cc1ccc(C2CSCCN2C(=O)NCc2cccnc2)cc1 (stereo not drawn) the screen gave PfKRS1: 3.955%; LiHisRS: 10.42%; TcHisRS: 7.292%; Leishmania in macrophages: 2.864%; ClpP1P2: -11.89%.
With CC(C)[C@H](N)c1nnc(SCC(=O)Nc2ccc(Br)cc2)o1 the screen gave PfKRS1: -0.2311%; LiHisRS: -2.632%; TcHisRS: 6.098%; ClpP1P2: -14.11%.
With Cc1cc(N(C)Cc2ncc[nH]2)nc(-c2ccccc2)n1 the screen gave PfKRS1: 6.469%; LiHisRS: 14.52%; TcHisRS: 4.545%; Leishmania in macrophages: 10.43%; ClpP1P2: -4.733%.
With Cc1ccc(C2CN(CCS(C)(=O)=O)CCO2)c(C)c1 (stereo not drawn) the screen gave PfKRS1: 0.7342%; LiHisRS: 8.333%; TcHisRS: 8.333%; Leishmania in macrophages: -22.84%; ClpP1P2: -8.116%.
With COCCN1CCC12CCN(C(=O)c1ccsc1)CC2.O=C(O)C(F)(F)F the screen gave Leishmania in macrophages: 14.81%.
With CN(Cc1noc2c1CCCC2)C(=O)C1CCOc2ccccc2C1 (stereo not drawn) the screen gave PfKRS1: 7.656%; LiHisRS: 12.5%; TcHisRS: -11.59%; Leishmania in macrophages: 1.944%; ClpP1P2: -20.18%.
With CN(C)[C@@H]1CN(Cc2ccccc2O)C[C@H]1c1cn(C)c2ccccc12.Cl the screen gave Leishmania in macrophages: -6.401%.
With COc1cccc2ccn(CCC(=O)N3CCCC(C(=O)O)C3)c12 (stereo not drawn) the screen gave PfKRS1: 4.933%; LiHisRS: 20%; TcHisRS: 1.087%; Leishmania in macrophages: 7.933%; ClpP1P2: -0.3029%.
With CNC(=O)C1CCCCN1C(=O)c1sc(-c2ccc(C)o2)nc1C (stereo not drawn) the screen gave PfKRS1: 0.872%; LiHisRS: 18.33%; TcHisRS: -1.961%; Leishmania in macrophages: 0.5203%; ClpP1P2: 2.7%.
With CNC(=O)C(C)CN(C)C(=O)Nc1ccc(Cl)cc1-n1cccc1 (stereo not drawn) the screen gave PfKRS1: 5.973%; LiHisRS: 16.44%; TcHisRS: 7.368%; Leishmania in macrophages: 7.225%; ClpP1P2: -10.19%.
With N#Cc1cccc(N2CC3(CCN(C(=O)NC4CC4)C3)CC2=O)c1 (stereo not drawn) the screen gave PfKRS1: 0.5248%; LiHisRS: 3.636%; TcHisRS: 10.74%; Leishmania in macrophages: 13.84%; ClpP1P2: -2.626%.
With O=C(O)C(F)(F)F.[H][C@]12CCN(C(=O)CC)CC[C@@]1([H])S(=O)(=O)CCN2Cc1cccc(C)n1 the screen gave Leishmania in macrophages: 19.36% and 35.26%.
With OC(CN1CCC(c2ccn[nH]2)CC1)c1cccc(C(F)(F)F)c1 (stereo not drawn) the screen gave PfKRS1: 1.668%; LiHisRS: 8.929%; TcHisRS: 5.233%; Leishmania in macrophages: 43.79%; ClpP1P2: -8.315%.
With Cc1oncc1C(=O)N1CC[C@H]2[C@@H]1CCC(=O)N2CC1CCOCC1 the screen gave PfKRS1: 2.574%; LiHisRS: 20.75%; TcHisRS: 11.11%; ClpP1P2: 2.889%.

The first 2 entries again:

{"compound": "CC(C)n1nccc1CN1Cc2nccn2CC1c1ccccc1", "stereo": "stereo not drawn", "PfKRS1": 2.158, "LiHisRS": 15.38, "TcHisRS": 1.13, "Leishmania in macrophages": 26.75, "ClpP1P2": 0.5395}
{"compound": "Cn1ccc(C(=O)N2CCC(Cc3ccc4ncccc4c3)CC2)n1", "PfKRS1": -0.7193, "LiHisRS": 0, "TcHisRS": 1.13, "Leishmania in macrophages": -67.74, "ClpP1P2": -7.536}

Measurements from “University of Dundee, Small-Polar-MMV Screening Library” (2021), ChEMBL document CHEMBL3988442.